Reference: PMC7081349
No constants are given. Whether binding was seen depends on the method and setting. For part of these data: In cells and extracts the contact can be indirect. Some results given as binding are weak or reduced against the parent protein; the word gives no strength.

Amino acid sequences for entries named in this document (tags omitted). A change or cut given only in a name is not applied to a line headed by its entry. Residues count along the entry.
UniProt Q00987: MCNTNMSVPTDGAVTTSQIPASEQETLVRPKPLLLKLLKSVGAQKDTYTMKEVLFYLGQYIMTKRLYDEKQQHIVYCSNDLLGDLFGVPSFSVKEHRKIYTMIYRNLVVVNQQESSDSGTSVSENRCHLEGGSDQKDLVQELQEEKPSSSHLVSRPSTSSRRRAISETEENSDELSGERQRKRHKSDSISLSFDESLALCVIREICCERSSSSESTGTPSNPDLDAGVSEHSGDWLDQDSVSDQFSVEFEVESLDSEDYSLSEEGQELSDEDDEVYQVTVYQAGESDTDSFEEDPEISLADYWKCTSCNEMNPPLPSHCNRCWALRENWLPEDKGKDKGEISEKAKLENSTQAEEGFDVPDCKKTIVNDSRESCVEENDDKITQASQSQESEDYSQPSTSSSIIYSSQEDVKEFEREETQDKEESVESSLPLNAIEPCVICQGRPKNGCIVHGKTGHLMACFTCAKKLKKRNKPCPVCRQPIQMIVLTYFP
GST-Mdm2-100T (Y100-P491): residues 100-491 of Q00987
UniProt O60260: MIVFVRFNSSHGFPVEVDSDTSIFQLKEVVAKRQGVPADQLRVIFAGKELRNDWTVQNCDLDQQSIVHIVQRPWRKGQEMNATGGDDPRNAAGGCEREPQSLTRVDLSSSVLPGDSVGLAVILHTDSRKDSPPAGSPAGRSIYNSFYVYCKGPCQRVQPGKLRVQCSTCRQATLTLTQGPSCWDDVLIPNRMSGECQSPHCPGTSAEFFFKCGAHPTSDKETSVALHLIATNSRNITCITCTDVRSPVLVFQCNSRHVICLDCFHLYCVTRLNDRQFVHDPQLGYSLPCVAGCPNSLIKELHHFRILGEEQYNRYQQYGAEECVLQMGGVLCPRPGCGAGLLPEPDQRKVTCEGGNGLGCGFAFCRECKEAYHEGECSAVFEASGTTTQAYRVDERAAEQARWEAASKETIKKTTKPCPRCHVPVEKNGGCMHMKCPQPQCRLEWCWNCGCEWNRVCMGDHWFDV

What was measured:
[1] = target: GST-Mdm2-100T (Y100-P491) (UniProt Q00987); assay: pull-down; GST-Mdm2 (Y100-P491) or GST (5 µg) held on glutathione-agarose; purified MBP-parkin or MBP (5 µg) added, 4 °C, 3 h; 20 mM Hepes pH 7.3, 150 mM NaCl; eluted with glutathione, blot with anti-MBP; both purified
HA-Mdm2 = HA-Mdm2 (UniProt Q00987); assay: co-IP; HEK293 cells co-expressing HA-Mdm2 and Flag- or myc-parkin constructs; HA-Mdm2 precipitated with anti-HA, parkin detected by anti-Flag or anti-myc blot; buffer with 250 mM NaCl, 0.5% NP-40, 4 °C

| Substance | binding [1] | binding (HA-Mdm2) |
| --- | --- | --- |
| MBP-parkin (from UniProt O60260 1-465) (enzyme) | binds | – |
| Flag-parkin, full-length WT (from UniProt O60260 1-465) (enzyme) | – | binds |
| myc-parkin (from UniProt O60260 1-465) (enzyme) | – | binds |
